# Measurements reported in the supplement of paper PMC11006884.
# Protein sequences, listed by entry. Tags and fused reporters are not part of them. Lines headed by an entry give the natural chain unless they say otherwise; changes in a name come on top.
# UniProt Q7Z4Q2: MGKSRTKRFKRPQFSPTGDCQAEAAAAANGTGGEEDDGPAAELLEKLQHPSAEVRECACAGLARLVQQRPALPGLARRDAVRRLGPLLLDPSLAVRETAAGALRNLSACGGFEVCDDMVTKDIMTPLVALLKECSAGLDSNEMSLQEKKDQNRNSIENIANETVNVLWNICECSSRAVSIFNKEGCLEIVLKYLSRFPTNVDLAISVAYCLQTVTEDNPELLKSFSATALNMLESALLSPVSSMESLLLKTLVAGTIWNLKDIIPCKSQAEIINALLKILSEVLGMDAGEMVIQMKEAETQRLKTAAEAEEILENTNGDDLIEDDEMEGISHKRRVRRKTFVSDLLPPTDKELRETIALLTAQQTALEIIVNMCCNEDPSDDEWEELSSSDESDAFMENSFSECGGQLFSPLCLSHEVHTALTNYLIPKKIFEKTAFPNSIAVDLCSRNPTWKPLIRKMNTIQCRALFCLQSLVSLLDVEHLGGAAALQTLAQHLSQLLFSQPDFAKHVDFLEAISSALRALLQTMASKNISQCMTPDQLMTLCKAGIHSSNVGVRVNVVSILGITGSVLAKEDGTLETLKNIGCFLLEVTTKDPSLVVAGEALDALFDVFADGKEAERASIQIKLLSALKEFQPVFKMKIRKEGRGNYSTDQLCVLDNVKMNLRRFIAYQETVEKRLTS
# UniProt Q8IWJ2: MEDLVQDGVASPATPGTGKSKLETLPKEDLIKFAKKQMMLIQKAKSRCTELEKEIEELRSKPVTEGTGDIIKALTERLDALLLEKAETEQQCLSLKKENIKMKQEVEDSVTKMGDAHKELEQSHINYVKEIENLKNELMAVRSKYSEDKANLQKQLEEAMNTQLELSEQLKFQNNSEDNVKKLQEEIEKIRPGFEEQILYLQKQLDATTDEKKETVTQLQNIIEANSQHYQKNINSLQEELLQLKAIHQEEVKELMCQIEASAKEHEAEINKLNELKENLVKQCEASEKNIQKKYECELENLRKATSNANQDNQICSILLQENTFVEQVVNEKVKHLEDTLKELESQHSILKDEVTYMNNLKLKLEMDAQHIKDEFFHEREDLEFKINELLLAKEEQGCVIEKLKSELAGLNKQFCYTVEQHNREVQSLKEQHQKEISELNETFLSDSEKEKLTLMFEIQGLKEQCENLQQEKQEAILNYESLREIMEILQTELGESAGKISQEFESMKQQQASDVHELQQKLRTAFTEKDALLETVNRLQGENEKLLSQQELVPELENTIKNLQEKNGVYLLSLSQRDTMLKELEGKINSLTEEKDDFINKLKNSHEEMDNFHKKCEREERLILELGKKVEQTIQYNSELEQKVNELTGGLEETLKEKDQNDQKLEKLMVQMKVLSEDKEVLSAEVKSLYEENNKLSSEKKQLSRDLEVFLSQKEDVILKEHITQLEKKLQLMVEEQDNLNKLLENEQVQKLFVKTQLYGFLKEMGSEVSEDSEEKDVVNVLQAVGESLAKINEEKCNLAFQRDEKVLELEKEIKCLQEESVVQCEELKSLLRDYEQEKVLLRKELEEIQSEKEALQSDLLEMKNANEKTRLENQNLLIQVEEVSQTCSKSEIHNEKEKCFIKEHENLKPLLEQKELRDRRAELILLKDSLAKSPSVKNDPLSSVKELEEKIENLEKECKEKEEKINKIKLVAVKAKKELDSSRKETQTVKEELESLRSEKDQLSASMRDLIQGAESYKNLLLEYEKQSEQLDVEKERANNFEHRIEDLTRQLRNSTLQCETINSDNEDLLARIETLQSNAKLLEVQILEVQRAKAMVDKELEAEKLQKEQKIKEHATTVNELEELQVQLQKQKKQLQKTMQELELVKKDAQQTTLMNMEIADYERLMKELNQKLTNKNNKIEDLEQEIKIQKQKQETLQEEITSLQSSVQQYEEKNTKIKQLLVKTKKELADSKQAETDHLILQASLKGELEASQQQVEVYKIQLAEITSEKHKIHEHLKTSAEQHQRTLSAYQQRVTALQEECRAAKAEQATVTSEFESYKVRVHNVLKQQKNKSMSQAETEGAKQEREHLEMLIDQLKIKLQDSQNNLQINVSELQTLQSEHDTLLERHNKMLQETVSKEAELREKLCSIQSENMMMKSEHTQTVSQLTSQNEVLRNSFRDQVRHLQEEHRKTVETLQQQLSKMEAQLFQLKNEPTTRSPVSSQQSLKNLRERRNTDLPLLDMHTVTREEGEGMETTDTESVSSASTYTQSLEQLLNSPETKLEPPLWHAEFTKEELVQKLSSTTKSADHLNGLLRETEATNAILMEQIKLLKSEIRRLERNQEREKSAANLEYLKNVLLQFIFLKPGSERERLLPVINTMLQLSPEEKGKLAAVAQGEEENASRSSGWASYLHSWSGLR
# UniProt Q86W42: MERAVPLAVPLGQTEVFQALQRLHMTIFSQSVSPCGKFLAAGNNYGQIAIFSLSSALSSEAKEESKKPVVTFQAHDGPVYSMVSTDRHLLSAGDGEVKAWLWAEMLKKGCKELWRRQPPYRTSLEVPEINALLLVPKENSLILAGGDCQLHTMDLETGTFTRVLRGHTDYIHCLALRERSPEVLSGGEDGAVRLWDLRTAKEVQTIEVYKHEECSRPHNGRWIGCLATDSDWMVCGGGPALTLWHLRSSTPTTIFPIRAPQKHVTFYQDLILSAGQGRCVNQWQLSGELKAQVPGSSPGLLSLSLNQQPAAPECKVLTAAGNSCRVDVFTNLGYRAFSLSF
# UniProt Q8IWZ3: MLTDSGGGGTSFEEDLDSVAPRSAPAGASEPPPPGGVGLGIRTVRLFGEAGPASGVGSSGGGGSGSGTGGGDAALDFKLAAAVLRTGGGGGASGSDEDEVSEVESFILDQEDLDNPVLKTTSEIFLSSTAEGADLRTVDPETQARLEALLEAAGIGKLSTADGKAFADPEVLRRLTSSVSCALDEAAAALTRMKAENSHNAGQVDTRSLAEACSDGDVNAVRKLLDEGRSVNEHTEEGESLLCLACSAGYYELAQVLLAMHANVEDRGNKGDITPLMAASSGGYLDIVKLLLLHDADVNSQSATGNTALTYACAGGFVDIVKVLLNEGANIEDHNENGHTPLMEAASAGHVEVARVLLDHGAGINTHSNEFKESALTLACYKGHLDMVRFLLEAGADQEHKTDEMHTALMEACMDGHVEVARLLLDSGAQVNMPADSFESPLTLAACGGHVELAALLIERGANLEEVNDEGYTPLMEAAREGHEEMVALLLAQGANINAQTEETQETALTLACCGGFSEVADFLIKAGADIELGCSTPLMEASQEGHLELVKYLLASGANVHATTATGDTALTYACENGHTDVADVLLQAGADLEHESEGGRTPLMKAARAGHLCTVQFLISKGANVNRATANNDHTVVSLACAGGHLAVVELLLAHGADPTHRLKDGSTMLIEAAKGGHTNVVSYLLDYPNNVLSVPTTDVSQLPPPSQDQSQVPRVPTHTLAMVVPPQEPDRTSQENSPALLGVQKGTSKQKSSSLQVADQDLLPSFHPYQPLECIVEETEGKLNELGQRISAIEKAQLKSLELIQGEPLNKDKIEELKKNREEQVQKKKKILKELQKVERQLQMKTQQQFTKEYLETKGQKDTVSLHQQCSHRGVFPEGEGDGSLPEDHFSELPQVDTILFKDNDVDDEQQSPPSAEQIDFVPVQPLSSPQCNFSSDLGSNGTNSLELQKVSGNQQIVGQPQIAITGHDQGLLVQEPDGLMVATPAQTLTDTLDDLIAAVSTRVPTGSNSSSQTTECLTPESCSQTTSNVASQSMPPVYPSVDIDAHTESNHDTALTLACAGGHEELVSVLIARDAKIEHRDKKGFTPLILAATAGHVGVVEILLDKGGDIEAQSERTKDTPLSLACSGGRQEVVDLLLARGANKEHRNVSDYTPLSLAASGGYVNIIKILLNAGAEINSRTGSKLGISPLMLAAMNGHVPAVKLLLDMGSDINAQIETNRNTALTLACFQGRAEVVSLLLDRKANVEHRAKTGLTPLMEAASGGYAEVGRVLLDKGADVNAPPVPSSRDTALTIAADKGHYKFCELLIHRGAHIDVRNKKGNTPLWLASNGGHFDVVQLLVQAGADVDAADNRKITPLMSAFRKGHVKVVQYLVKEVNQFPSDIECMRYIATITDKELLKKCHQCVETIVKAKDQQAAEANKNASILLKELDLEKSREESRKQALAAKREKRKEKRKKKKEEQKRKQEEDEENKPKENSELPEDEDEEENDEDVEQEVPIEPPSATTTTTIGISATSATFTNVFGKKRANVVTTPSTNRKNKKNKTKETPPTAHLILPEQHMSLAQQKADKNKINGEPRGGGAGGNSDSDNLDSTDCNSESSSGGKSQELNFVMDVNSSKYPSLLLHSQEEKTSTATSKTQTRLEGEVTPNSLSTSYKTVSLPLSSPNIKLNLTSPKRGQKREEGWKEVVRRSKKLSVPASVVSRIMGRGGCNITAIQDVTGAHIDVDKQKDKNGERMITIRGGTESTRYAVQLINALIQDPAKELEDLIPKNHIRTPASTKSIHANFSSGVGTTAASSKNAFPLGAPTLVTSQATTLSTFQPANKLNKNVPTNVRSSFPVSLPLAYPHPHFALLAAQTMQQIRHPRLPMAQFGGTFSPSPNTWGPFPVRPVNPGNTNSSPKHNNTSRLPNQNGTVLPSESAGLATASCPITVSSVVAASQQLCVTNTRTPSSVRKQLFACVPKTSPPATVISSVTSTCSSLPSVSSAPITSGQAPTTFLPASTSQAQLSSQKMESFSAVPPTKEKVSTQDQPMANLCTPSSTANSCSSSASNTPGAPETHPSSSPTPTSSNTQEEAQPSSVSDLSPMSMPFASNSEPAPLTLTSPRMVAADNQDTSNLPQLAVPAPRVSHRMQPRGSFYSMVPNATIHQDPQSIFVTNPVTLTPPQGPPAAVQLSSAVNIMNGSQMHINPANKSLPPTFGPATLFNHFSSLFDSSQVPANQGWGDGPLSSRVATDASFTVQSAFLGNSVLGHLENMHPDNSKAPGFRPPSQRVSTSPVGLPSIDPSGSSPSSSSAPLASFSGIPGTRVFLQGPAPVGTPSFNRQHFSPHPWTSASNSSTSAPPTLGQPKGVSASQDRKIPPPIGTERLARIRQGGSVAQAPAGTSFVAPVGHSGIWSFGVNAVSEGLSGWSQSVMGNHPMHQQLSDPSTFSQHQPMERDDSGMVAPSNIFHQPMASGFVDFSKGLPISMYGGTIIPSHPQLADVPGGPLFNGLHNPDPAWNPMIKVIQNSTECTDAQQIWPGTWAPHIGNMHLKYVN
# UniProt Q7L1Q6: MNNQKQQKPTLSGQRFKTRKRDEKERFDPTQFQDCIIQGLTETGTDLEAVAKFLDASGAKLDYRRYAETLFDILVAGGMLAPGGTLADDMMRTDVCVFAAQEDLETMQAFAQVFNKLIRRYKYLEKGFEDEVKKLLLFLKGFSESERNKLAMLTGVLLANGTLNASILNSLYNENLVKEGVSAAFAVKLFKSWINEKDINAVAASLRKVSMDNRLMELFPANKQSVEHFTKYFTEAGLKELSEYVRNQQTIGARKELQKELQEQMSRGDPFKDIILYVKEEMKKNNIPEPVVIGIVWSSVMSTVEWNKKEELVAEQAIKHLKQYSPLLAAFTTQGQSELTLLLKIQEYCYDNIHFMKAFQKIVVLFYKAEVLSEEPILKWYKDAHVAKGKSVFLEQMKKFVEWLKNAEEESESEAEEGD
# UniProt Q8IV63: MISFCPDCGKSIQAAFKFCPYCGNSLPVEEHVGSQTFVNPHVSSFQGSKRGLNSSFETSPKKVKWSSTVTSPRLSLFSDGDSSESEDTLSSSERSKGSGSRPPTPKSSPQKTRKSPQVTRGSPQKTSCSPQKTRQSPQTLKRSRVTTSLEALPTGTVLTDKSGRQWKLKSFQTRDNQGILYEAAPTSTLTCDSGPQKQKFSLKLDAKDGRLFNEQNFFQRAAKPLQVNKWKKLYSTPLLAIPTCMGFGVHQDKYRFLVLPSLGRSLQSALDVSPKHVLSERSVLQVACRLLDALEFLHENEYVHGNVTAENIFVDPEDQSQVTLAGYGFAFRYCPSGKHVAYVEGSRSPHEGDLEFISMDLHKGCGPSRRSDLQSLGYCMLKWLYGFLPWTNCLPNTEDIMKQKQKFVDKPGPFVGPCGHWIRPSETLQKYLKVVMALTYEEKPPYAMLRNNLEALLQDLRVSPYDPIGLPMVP
# UniProt Q86UD0: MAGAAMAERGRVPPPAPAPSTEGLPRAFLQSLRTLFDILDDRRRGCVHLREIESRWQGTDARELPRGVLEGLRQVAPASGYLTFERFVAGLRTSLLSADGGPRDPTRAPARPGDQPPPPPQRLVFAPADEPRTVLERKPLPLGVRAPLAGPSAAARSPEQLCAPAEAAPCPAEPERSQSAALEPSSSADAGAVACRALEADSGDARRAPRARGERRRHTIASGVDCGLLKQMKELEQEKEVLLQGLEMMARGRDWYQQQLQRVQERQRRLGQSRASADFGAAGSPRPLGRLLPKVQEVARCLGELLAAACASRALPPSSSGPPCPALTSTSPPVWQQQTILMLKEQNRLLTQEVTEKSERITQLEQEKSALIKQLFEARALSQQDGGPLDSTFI
# The entries are a selection whose mix differs from that of the whole data set.
# Compound: COC(=O)C#Cc1ccccc1 [methyl 3-phenylpropiolate]
# Assay: log2 ratio of iodoacetamide-alkyne labeling of the cysteine site, DMSO over compound (competition); higher = stronger covalent engagement of the cysteine by the compound, active = 1 or more
# Details: 500 µM; treatment time 1 h; system: HEK293T cell lysate
# Method in brief: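 HEK293T lysate at 2 mg/mL was treated with vehicle or electrophile (500 µM) for 1 h at ambient temperature, then labelled with iodoacetamide alkyne (1 h), clicked to sCIP-TMT reagents, pooled, digested with trypsin overnight at 37 °C, enriched on streptavidin and eluted with acid. Peptides were analysed by Orbitrap Eclipse LC-MS/MS with FAIMS and quantified in FragPipe, using duplicate channels and three replicates, with cysteines quantified in only one replicate excluded. The log2 competition ratio for each cysteine is the mean control-channel reporter intensity divided by the mean compound-channel reporter intensity.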
row,Target,log2 ratio of iodoacetamide-alkyne labeling
1,ZC3HAV1 C150 (UniProt Q7Z2W4),inactive: 0.156
2,PHF6 C28 (UniProt Q8IWS0),inactive: 0.287
3,HEATR3 C655 (UniProt Q7Z4Q2),inactive: 0.102
4,DHX30 C1183 (UniProt Q7L2E3),inactive: 0.0938
5,GCC2 C297 (UniProt Q8IWJ2),inactive: 0.466
6,SND1 C96 (UniProt Q7KZF4),inactive: 0.115
7,KTN1 C736 (UniProt Q86UP2),inactive: 0.217
8,UniProt Q7Z434_C133,inactive: 0.45
9,WDFY1 C287 (UniProt Q8IWB7),inactive: 0.127
10,THOC6 C279 (UniProt Q86W42),inactive: 0.192
11,ANKHD1 C777 (UniProt Q8IWZ3),inactive: 0.251
12,UniProt Q7Z695_C54,inactive: 0.541
13,UniProt Q7LBC6_C569,inactive: 0.877
14,CRLF3 C95 (UniProt Q8IUI8),inactive: 0.136
15,RBBP6 C44 (UniProt Q7Z6E9),inactive: 0.669
16,Q8F0_C443,inactive: 0.302
17,CCDC25 C83 (UniProt Q86WR0),inactive: 0.0967
18,UniProt Q7L1Q6_C35,inactive: -0.0927
19,COMMD6 C60 (UniProt Q7Z4G1),inactive: 0.41

# For convenience, some entries already given.
row,Target,log2 ratio of iodoacetamide-alkyne labeling
12,UniProt Q7Z695_C54,inactive: 0.541
13,UniProt Q7LBC6_C569,inactive: 0.877

# Next part:

row,Target,log2 ratio of iodoacetamide-alkyne labeling
1,SETX C2451 (UniProt Q7Z333),inactive: 0.616
2,HUWE1 C3361 (UniProt Q7Z6Z7),inactive: 0.797
3,UniProt Q86Y56_C773,inactive: -0.0321
4,FASTKD5 C525 (UniProt Q7L8L6),inactive: 0.511
5,VRK3 C191 (UniProt Q8IV63),inactive: 0.575
6,ISCA2 C144 (UniProt Q86U28),active: 1.59
7,SUPT6H C575 (UniProt Q7KZ85),inactive: -0.0128
8,UniProt Q7Z5K2_C160,inactive: 0.514
9,UniProt Q86UD0_C195,inactive: 0.728
10,NCAPG2 C776 (UniProt Q86XI2),inactive: 0.824
11,RSRC2 C382 (UniProt Q7L4I2),inactive: 0.217
12,PARG C603 (UniProt Q86W56),inactive: -0.000887
13,KSR1 C777 (UniProt Q8IVT5),inactive: 0.336
14,UniProt Q8IX01_C947,inactive: 0.442
15,UniProt Q8IY26_C55,inactive: 0.993
16,UniProt Q7Z5K2_C94,inactive: 0.262
17,DCXR C150 (UniProt Q7Z4W1),inactive: -0.1
18,APTX C161 (UniProt Q7Z2E3),inactive: 0.422
